Experimental findings from article PMC6423285 are described below.

Protein sequences, listed by entry. Tags and fused reporters are not part of them.
UniProt O94874: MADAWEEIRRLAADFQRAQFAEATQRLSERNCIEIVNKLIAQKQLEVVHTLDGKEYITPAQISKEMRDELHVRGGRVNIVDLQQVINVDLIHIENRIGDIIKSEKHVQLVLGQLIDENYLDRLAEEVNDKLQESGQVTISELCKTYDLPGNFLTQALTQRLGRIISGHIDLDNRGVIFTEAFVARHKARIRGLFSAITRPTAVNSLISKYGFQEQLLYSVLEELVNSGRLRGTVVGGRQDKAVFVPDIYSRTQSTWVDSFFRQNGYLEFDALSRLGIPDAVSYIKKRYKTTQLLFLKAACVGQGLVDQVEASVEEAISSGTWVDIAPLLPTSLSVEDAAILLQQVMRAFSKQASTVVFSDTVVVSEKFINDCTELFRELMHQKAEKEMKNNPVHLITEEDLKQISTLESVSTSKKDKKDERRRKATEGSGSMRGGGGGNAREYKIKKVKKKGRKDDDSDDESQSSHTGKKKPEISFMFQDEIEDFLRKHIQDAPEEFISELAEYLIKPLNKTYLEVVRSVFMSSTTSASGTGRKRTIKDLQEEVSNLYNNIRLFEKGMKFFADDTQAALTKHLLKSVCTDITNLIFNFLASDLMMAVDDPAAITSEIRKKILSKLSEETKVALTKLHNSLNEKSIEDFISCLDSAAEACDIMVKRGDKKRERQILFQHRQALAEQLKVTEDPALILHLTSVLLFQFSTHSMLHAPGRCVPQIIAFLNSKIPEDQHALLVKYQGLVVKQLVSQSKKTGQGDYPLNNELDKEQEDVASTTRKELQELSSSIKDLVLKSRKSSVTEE
UniProt O60934: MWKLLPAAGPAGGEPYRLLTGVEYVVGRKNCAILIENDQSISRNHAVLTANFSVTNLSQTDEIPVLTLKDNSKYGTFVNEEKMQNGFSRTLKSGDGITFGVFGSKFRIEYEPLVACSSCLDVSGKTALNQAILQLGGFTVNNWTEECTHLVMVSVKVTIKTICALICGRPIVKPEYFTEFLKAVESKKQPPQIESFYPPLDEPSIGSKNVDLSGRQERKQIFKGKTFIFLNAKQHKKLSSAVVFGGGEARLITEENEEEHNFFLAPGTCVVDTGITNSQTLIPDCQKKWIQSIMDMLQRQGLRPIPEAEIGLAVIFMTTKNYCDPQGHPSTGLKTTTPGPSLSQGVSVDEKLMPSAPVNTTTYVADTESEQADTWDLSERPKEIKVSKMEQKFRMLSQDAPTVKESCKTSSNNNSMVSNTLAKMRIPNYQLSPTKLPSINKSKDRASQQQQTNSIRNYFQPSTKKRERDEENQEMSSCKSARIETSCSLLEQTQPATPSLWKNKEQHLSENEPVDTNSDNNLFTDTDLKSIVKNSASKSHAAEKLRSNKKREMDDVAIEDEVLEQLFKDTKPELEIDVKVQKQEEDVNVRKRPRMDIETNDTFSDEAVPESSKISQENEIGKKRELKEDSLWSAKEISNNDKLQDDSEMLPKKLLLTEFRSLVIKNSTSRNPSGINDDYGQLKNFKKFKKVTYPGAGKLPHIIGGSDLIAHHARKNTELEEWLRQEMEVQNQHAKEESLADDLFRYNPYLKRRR

Test [1] addresses UFM1 specific ligase 1 (UFL1) (human (endogenous in U2OS and NBST cells)) (UniProt O94874). The test is described as follows: co-IP; NBST cells transfected with Flag-NBS1, with or without 2 Gy IR, 30 min; IP with UFL1 antibody with Benzonase; blots.
Test [2] has as its target T1, UFL1 phospho peptide (DDSDDEpSQSSHTG).
T1 sequence (peptide, phosphoserine at S462 (7th residue of the peptide)): DDSDDESQSSHTG
The test is described as follows: pull-down; pS462 peptide on beads, NBS1 pulled down from cell; only the target purified.

Test [3] has as its target UFM1 specific ligase 1 (UFL1) (human (endogenous in U2OS and NBST cells)) (UniProt O94874). The test is described as follows: co-IP; U2OS cells (UFL1 Tet-on shRNA, with or without Dox), with or without 2 Gy IR, 30 min; NETN lysate; IP with UFL1 antibody + Benzonase; blots.

No constants are given. Whether binding was seen depends on the method and setting. In cells and extracts the contact can be indirect. Some results given as binding are weak or reduced against the parent protein; the word gives no strength.

Consider Flag-NBS1 (from UniProt O60934 1-754), for which the binding result in test [1] is “binds”.
On to NBS1 (from UniProt O60934 1-754), for which the binding result in test [2] and in test [3] was “binds” in each case.
